This note sets out measurements from publication PMC8716806.

The chains behind the UniProt entries cited, without tags or fusion partners.
UniProt P14565: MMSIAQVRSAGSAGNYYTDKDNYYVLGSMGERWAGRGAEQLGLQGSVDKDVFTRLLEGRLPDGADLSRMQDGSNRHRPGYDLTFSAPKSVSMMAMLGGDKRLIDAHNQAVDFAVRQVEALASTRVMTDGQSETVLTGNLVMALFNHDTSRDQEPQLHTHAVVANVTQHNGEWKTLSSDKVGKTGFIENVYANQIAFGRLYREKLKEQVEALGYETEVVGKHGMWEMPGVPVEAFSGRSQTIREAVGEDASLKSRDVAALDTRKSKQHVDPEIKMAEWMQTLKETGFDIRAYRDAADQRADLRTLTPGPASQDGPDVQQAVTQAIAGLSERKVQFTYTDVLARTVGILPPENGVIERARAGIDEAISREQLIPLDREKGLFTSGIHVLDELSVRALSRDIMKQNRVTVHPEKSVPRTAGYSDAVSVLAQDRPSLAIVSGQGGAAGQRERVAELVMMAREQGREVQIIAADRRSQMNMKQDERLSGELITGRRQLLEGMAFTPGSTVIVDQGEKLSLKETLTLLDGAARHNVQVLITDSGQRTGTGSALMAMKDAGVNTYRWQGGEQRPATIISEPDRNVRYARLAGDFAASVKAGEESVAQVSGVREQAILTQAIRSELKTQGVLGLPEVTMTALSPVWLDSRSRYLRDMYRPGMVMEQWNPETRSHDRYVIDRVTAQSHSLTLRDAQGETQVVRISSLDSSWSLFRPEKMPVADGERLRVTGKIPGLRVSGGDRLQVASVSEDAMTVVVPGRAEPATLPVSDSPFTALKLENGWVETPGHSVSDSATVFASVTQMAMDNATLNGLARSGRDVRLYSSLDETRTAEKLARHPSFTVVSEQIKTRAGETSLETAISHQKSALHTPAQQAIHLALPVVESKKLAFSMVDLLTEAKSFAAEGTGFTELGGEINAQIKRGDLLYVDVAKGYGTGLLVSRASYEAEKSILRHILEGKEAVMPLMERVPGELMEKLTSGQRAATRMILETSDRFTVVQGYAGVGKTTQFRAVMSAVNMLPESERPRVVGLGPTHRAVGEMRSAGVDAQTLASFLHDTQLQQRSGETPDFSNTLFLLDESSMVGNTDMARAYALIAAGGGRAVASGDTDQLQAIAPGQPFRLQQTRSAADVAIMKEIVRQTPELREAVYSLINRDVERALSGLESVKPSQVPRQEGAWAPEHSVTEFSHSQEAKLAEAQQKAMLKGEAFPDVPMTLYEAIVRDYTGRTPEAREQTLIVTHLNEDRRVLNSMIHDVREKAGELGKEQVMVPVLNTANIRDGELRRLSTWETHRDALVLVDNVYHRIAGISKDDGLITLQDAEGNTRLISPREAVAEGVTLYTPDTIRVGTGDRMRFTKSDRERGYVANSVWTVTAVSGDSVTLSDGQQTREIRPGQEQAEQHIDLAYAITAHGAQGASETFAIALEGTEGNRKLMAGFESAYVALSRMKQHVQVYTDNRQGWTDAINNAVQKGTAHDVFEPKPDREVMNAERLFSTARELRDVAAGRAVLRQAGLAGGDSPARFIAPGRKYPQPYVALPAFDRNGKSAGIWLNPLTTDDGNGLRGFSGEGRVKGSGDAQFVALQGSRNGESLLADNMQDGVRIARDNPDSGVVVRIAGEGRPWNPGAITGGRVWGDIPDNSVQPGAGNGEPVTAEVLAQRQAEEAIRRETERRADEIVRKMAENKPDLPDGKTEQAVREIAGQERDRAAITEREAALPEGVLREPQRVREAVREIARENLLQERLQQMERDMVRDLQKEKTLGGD

What all share (experiment): two-hybrid; bacterial two-hybrid (BACTH): T18 and T25 fragments of B. pertussis adenylate cyclase fused to the N- or C-terminus; plasmids co-transformed into E. coli BTH101; LB agar with 0.5 mM IPTG and 40 ug/ml X-gal, 40-48 h at 30 C, blue colony colour; beta-galactosidase assay (Miller) of overnight cultures at 30 C for some pairs
The target in assay [1] is TraI from F-plasmid (relaxase) (E. coli F-plasmid) (UniProt P14565).
The target is the same in assay [2]. This is another data set of the same source.
The target in assay [3] is SopA, plasmid partitioning protein of F-plasmid (Walker-type ATPase) (E. coli F-plasmid) (UniProt P62556).
The target of assay [4] is T1, SopB, plasmid partitioning protein of F-plasmid (DNA-binding partner) (E. coli F-plasmid) (UniProt P62558).
T1 sequence: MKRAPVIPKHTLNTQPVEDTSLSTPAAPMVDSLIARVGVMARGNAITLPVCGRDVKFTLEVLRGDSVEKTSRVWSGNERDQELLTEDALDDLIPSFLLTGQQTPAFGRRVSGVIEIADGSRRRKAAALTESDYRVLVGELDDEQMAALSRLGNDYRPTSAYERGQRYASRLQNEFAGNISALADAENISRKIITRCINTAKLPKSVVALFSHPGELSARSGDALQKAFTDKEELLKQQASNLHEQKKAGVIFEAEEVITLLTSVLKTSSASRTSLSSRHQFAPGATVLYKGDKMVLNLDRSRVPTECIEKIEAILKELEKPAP

Like-named read-outs stand apart in the source and are kept apart here. Results are given in words; binding and its absence hold for the method and conditions named. Some binding calls cover weakened binding; strength is not graded here.

Consider “TraI from F-plasmid (relaxase) (from UniProt P14565 1-1756)”, for which, in assay [1], the binding entry is “binds weakly”.

B1: SopA, plasmid partitioning protein of F-plasmid (Walker-type ATPase) (protein, UniProt P62556 1-388)
chain: MKLMETLNQCINAGHEMTKAIAIAQFNDDSPEARKITRRWRIGEAADLVGVSSQAIRDAEKAGRLPHPDMEIRGRVEQRVGYTIEQINHMRDVFGTRLRRAEDVFPPVIGVAAHKGGVYKTSVSVHLAQDLALKGLRVLLVEGNDPQGTASMYHGWVPDLHIHAEDTLLPFYLGEKDDVTYAIKPTCWPGLDIIPSCLALHRIETELMGKFDEGKLPTDPHLMLRLAIETVAHDYDVIVIDSAPNLGIGTINVVCAADVLIVPTPAELFDYTSALQFFDMLRDLLKNVDLKGFEPDVRILLTKYSNSNGSQSPWMEEQIRDAWGSMVLKNVVRETDEVGKGQIRMRTVFEQAIDQRSSTGAWRNALSIWEPVCNEIFDRLIKPRWEIR
B1: the binding entry is reported as “binds weakly” in assay [2], “binds” in assay [3] and “binds” in assay [4].

B2: SopB, plasmid partitioning protein of F-plasmid (DNA-binding partner) (protein, UniProt P62558 1-323)
chain: MKRAPVIPKHTLNTQPVEDTSLSTPAAPMVDSLIARVGVMARGNAITLPVCGRDVKFTLEVLRGDSVEKTSRVWSGNERDQELLTEDALDDLIPSFLLTGQQTPAFGRRVSGVIEIADGSRRRKAAALTESDYRVLVGELDDEQMAALSRLGNDYRPTSAYERGQRYASRLQNEFAGNISALADAENISRKIITRCINTAKLPKSVVALFSHPGELSARSGDALQKAFTDKEELLKQQASNLHEQKKAGVIFEAEEVITLLTSVLKTSSASRTSLSSRHQFAPGATVLYKGDKMVLNLDRSRVPTECIEKIEAILKELEKPAP
B2: the binding result in assay [4] was “binds”.
